This test concerns LNCaP cells. Put plainly: Cell proliferation/viability, Alamar blue, AR specific proliferation with or without 0.1 nM R1881. The format is cell-based. The settings on record: Homo sapiens, read-out: Cellular Proliferation/Viability IC50. The method, then:
In LNCaP cells, AR specific proliferation is calculated by measuring the difference between control cells treated with or without 0.1 nM R1881.
(Resazurin is reduced to fluorescent resorufin, in cell work by metabolically active cells.)

Regarding `CNC(=O)c1ccc(N2C(=S)N(c3ccc(C#N)c(C(F)(F)F)c3)C(=O)C2(C)C)cc1F` [Enzalutamide], the IC50 came to 350 nM.

The values are drawn from patent US11518747B2, “Solid forms of an N-terminal domain androgen receptor inhibitor and uses thereof” (ESSA Pharma, Inc., priority 2020, dated 2022).
